Experimental data from US10925960B2, “Antigen delivery system” (SRI INTERNATIONAL, priority 2014, dated 2021).
At least one structure is not confirmed: it was looked up by name or label, or the drawing left a doubt.

Test system: LLC1 cells
Test: Coculture of liposome-treated LLC1 cells with lymphocytes from H250-vaccinated C57BL/6 mice, IFNγ secretion
Assay type: cell-based, mouse
Details: LLC1 cells treated with H1299.3-targeted liposomes containing H250 in presence of inhibitor, fixed, cocultured with lymphocytes
Protocol: We then generated murine CD8+ cells with TCR that recognizes MHC class I loaded H250 (1) by vaccinating C57BL/6 mice with an extended version of H250 and subsequently harvesting lymphocytes as a source of CD8+ T cells. LLC1 cells were treated with control or H1299.3-targeted liposomes containing H250, washed, and then incubated.
After allowing trafficking of the peptides to occur, the LLC1 cells were fixed and cocultured with lymphocytes as previously described.

## COC[C@H]1OC(=O)c2coc3c2[C@@]1(C)C1=C(C3=O)[C@@H]2CCC(=O)[C@@]2(C)C[C@H]1OC(C)=O [wortmannin]
  Effect of inhibitor on IFNγ secretion / H250 presentation: significant reduction in IFNγ secretion
